{
  "source": "patent US5409944A",
  "about": "“Alkanesulfonamido-1-indanone derivatives as inhibitors of cyclooxygenase” (Merck Frosst Canada, Inc., priority 1993, dated 1995)",
  "system": "cyclooxygenase-2 (COX-2)",
  "experiment": "PGE2 synthesis in the presence of arachidonic acid, cyclooxygenase and compound",
  "assay_type": "biochemical",
  "settings": "selectivity COX-2 over COX-1, PGE2 synthesis assay",
  "note": "Some entries share one result that the patent states for a list of compounds.",
  "data": [
    {"smiles": "CS(=O)(=O)Nc1cc2c(cc1Sc1nccs1)C(=O)CC2.[Na]", "note": "[Compound 3, 5-Methanesulfonamido-6-(2-thiazolylthio)-1-indanone, sodium salt]", "values": [
      {"measurement": "times more effective in inhibiting COX-2 than COX-1", "value": "more than 100 times"}
    ]}
  ]
}
